This is an account of results in patent US20160257755A1 (TRACON PHARMACEUTICALS, published 2016).

Results are given in words; binding and its absence hold for the method and conditions named. Some entries that bind do so weakly or less than the wild type.

This assay addresses T1, human CD105 (endoglin), R&D Systems Cat. No. 1097-EN (human) (UniProt P17813).
T1 sequence (looked up): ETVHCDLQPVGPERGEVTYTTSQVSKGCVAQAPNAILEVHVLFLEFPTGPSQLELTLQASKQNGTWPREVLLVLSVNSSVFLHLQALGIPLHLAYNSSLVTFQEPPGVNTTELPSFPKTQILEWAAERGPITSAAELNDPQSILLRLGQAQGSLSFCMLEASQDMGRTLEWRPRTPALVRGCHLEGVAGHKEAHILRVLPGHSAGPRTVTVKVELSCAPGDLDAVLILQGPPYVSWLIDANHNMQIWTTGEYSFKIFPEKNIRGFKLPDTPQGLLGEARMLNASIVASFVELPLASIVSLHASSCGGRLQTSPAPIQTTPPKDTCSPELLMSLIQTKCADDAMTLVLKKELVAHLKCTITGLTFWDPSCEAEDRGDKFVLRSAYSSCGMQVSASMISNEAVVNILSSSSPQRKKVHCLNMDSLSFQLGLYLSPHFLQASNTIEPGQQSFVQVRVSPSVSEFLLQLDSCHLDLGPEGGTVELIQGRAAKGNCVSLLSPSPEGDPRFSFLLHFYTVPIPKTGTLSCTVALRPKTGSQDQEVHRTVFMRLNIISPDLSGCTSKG
Nature of the assay: competition ELISA on captured human CD105 against biotinylated chimeric anti-CD105 (6.25 ng/ml); streptavidin-HRP/TMB, absorbance at 450 nm. On the technique in general: ELISA stands for enzyme-linked immunosorbent assay.

B1: VK2AAVH1A2 (antibody, V domains shown)
VH: EVQLVESGGGLVKPGGSLRLSCAASGFTFSDAWMDWVRQAPGKGLEWVGEARSKASNHATYYAESVKGRFTISRDDSKNTLYLQMNSLKTEDTAVYYCTRWRRFFDSWGQGTLVTVSS
VL: DIQLTQSPSSLSASVGDRATITCRASSSVSYMHWYQQKPGKAPKPWAYATSNLASGVPSRFSGSGSGTDYTLTISSLQPEDFATYYCQQWSSNPLTFGGGTKVEIK
For the molecule B1, the binding entry is reported as “binds”.

B2: VK2SAVH1A (antibody, V domains shown)
VH: EVQLVESGGGLVKPGGSLRLSCAASGFTFSDAWMDWVRQAPGKGLEWVAEIRSKASNHATYYAESVKGRFTISRDDSKNTLYLQMNSLKTEDTAVYYCTRWRRFFDSWGQGTLVTVSS
VL: DIQLTQSPSSLSASVGDRVTISCRASSSVSYMHWYQQKPGKAPKPWAYATSNLASGVPSRFSGSGSGTDYTLTISSLQPEDFATYYCQQWSSNPLTFGGGTKVEIK
Consider B2, for which the binding entry is recorded as “binds”.
